# Data published in ChEMBL document CHEMBL4382258, “Design and Optimization of Sulfone Pyrrolidine Sulfonamide Antagonists of Transient Receptor Potential Vanilloid-4 with in Vivo Activity in a Pulmonary Edema Model” (J Med Chem, 2018).
# Tests used:
# [1] = Kinetic aqueous solubility of the compound by chemiluminescence nitrogen detection analysis; settings: buffer
# [2] = Lipophilicity, chromatographic hydrophobicity index of the compound in immobilized artificial membrane
structure (smiles),measurement,setting,value
N#Cc1ccc(S(=O)(=O)N2C[C@H](S(=O)(=O)c3ccc(Cl)cc3)[C@](O)(CN)C2)c(Cl)c1,solubility kinetic,[1],280 µM
same,CHI,[2],49
